Data on 16 molecules can be found in PubChem BioAssay AID200 (DTP/NCI, 2004).

The subject of the test is B6C3F1 mice, B16 melanoma ip, median survival T/C. The test can be described thus: NCI In Vivo Anticancer Drug Screen. Data for tumor model B16 Melanoma (intraperitoneal) in B6C3F1 mice. As to conditions: T/C endpoint: median survival time, higher T/C = longer survival. In a few lines:
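Mice bearing transplanted tumor were dosed with compound or vehicle, and survival was recorded. Activity is expressed as the treated-group measurement (T) divided by the vehicle control measurement (C).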

The mark [1] stands for this setting: dose: 3.12 mg/kg/injection, schedule: Q01DX009 (ip), vehicle: Klucel (hydroxypropylcellulose) (HPC).
Where [2] appears, read: dose: 50.0 mg/kg/injection, schedule: Q01DX009 (ip), vehicle: Klucel (hydroxypropylcellulose) (HPC).
Setting [3] is: dose: 200.0 mg/kg/injection, schedule: Q01DX009 (ip), vehicle: saline with Tween-80.
Setting [4] is: dose: 400.0 mg/kg/injection, schedule: Q01DX009 (ip), vehicle: saline with Tween-80.
The mark [5] stands for this setting: dose: 100.0 mg/kg/injection, schedule: Q01DX009 (ip), vehicle: saline.

The list does not hold the whole screen: it is rich in T/C values a quarter to a half above the control, in often repeated tests (any T/C) and in doses without a T/C. Further doses and runs are listed elsewhere. T/C gives the treated animals as a percentage of the vehicle group. Some doses have a count of surviving animals in place of a T/C: the source files T/C as zero there, which appears to mark a toxic dose or a test without result, not a measured value. Some doses without a T/C left all or most animals alive at the check, yet need not have been tolerated: the source hardly ever lists a survival T/C far under the control, and the zero likely stands for such cases as well. Counts of survivors are from the toxicity check (mostly the fifth day) where no day follows; animals may have died later. Schedules are NCI's codes, taken here to give the interval after Q, in days (D) or hours (H), and the number of doses after X. Some doses were run more than once; the results are listed from low to high. For survival time, this PubChem deposit counts one and a half times the control or more as active, and values a quarter to a half above the control carry no call in these data; other NCI protocols may use other cut-offs. Some T/C values are followed by the survivors on the day toxicity was checked, most often the fifth; where none is given, no animal had died by that day. Signs of the kind (2×) say how often a value occurs here. Where a SMILES comes first, the peptide text is derived from it. The star is where a group is joined. Cbz = O=C(OCc1ccccc1)*

As to `NC(=O)/C=C/c1c[nH]c2nccnc12`, the survivor count (dose: 50.0 mg/kg/injection, schedule: Q01DX009 (ip), vehicle: water) is reported as 3 of 10.
As for `CCCCc1ccc(-n2c(C)c(COC(=O)NC)c(COC(=O)NC)c2C)cc1`, the T/C under setting [1] was 145 % of control. Besides, the survivor count under setting [2] is given as 10 of 10.
Take `C[n+]1c(/C=C\C=C\N2CCCCC2)sc2ccccc21`: the T/C (dose: 0.06 mg/kg/injection, schedule: Q01DX009 (ip), vehicle: Klucel (hydroxypropylcellulose) (HPC)) was 126 % of control.
For `[O-][n+]1c(CN2CCCCC2)nc2cccc3c2c1-c1ccccc1-3`, the survivor count under setting [3] is given as 10 of 10.
In the case of `CN(C)C(=O)SC1=C(c2c(Cl)cccc2Cl)C(=O)c2ccccc21`, under “dose: 400.0 mg/kg/injection, schedule: Q01DX009 (ip), vehicle: Klucel (hydroxypropylcellulose) (HPC)”, the survivor count was 10 of 10.
`N=C(N)c1ccc(N=Nc2c(O)ccc3cc(O)ccc23)cc1`: the survivor count is, setting by setting: under setting [1], 10 of 10; (dose: 6.25 mg/kg/injection, schedule: Q01DX009 (ip), vehicle: Klucel (hydroxypropylcellulose) (HPC)) 10 of 10; (dose: 12.5 mg/kg/injection, schedule: Q01DX009 (ip), vehicle: Klucel (hydroxypropylcellulose) (HPC)) 10 of 10; (dose: 25.0 mg/kg/injection, schedule: Q01DX009 (ip), vehicle: Klucel (hydroxypropylcellulose) (HPC)) 10 of 10; under setting [2], 10 of 10; (dose: 100.0 mg/kg/injection, schedule: Q01DX009 (ip), vehicle: Klucel (hydroxypropylcellulose) (HPC)) 10 of 10.
Consider `Cc1cc2c(C(C)C)c(O)c(O)c(C=NCCO)c2c(O)c1-c1c(C)cc2c(C(C)C)c(O)c(O)c(C=NCCO)c2c1O`, for which, under setting [3], the T/C is 140 % of control. In addition, under setting [4], the T/C was 131 % of control and the survivor count was 10 of 10.
As to `Oc1ccc(CCl)c2cccnc12`, the survivor count is listed as 10 of 10 (dose: 12.5 mg/kg/injection, schedule: Q01DX009 (ip), vehicle: saline); 10 of 10 under setting [5]; 6 of 10, 8 of 10, 10 of 10 (dose: 200.0 mg/kg/injection, schedule: Q01DX009 (ip), vehicle: saline). For the same molecule, the T/C (dose: 25.0 mg/kg/injection, schedule: Q01DX009 (ip), vehicle: saline) is on record as 92, 98, 102, 105 % of control; the T/C (dose: 50.0 mg/kg/injection, schedule: Q01DX009 (ip), vehicle: saline) was 87, 90, 109, 119 % of control; the T/C under setting [5] is 91 (2×) and 128 % of control [9 of 10 alive].
For `O=c1c(O)c(-c2ccc(O)c(O)c2)oc2cc(O)cc(O)c12`, where the note is “dose: 200.0 mg/kg/injection, schedule: Q01DX009 (ip), vehicle: suspension in saline”, the survivor count is 9 of 10.
`CCC(/C=C/C1OC(=O)C=CC1C)=C\C(C)C/C=C/C(C)=C/C(C)C(=O)C(C)C(O)C(C)C/C(C)=C/C(=O)O` (configuration not stated): the T/C runs as follows: (dose: 6.25 micrograms/kg/injection, schedule: Q01DX009 (ip), vehicle: other) 145 % of control; (dose: 6.25 micrograms/kg/injection, schedule: Q01DX009 (ip), vehicle: saline + alcohol) 149 % of control; (dose: 25.0 micrograms/kg/injection, schedule: Q01DX009 (ip), vehicle: other) 145 % of control; (dose: 50.0 micrograms/kg/injection, schedule: Q01DX009 (sc), vehicle: other) 126 % of control; (dose: 100.0 micrograms/kg/injection, schedule: Q01DX009 (sc), vehicle: other) 135 % of control; (dose: 200.0 micrograms/kg/injection, schedule: Q01DX009 (sc), vehicle: other) 135 % of control. The survivor count (dose: 25.0 micrograms/kg/injection, schedule: Q01DX009 (ip), vehicle: saline + alcohol) is recorded as 10 of 10; the survivor count (dose: 50.0 micrograms/kg/injection, schedule: Q01DX009 (ip), vehicle: other) is 10 of 10; the survivor count (dose: 50.0 micrograms/kg/injection, schedule: Q01DX009 (ip), vehicle: saline + alcohol) is 9 of 10 and 10 of 10; the survivor count (dose: 100.0 micrograms/kg/injection, schedule: Q01DX009 (ip), vehicle: other) was 8 of 10; the survivor count (dose: 100.0 micrograms/kg/injection, schedule: Q01DX009 (ip), vehicle: saline + alcohol) is 9 of 10 and 10 of 10; the survivor count (dose: 200.0 micrograms/kg/injection, schedule: Q01DX009 (ip), vehicle: saline + alcohol) is given as 1 of 10.
For the molecule `CC(NC(=O)OCc1ccccc1)C(=O)NC(CC(N)=O)C(=O)O` (stereo not drawn) (Cbz-Ala-Asn-OH; configuration not given here), the T/C (dose: 200.0 mg/kg/injection, schedule: Q01DX009 (ip), vehicle: Klucel (hydroxypropylcellulose) (HPC)) was 127 % of control.
As to `Cc1ccc(C(=O)OC(C(=O)O)C(OC(=O)c2ccc(C)cc2)C(=O)O)cc1` (configuration not stated) (tested in a mixture with another compound), the survivor count runs as follows: (dose: 50.0 mg/kg/injection, schedule: Q01DX009 (ip), vehicle: other) 4 of 8; (dose: 100.0 mg/kg/injection, schedule: Q01DX009 (ip), vehicle: other) 0 of 8.
Consider `C1CN1P1(N2CC2)=NP(N2CC2)(N2CC2)=NP(N2CC2)(N2CC2)=N1`, for which the T/C (dose: 2.0 mg/kg/injection, schedule: Q01DX009 (ip), vehicle: Klucel (hydroxypropylcellulose) (HPC)) was 134 % of control; the T/C (dose: 4.0 mg/kg/injection, schedule: Q01DX009 (ip), vehicle: Klucel (hydroxypropylcellulose) (HPC)) is 138 and 149 % of control; the T/C (dose: 8.0 mg/kg/injection, schedule: Q01DX009 (ip), vehicle: Klucel (hydroxypropylcellulose) (HPC)) is 147 % of control; the T/C (dose: 8.0 mg/kg/injection, schedule: Q02DX009 (ip), vehicle: Klucel (hydroxypropylcellulose) (HPC)) is 147 % of control; the T/C (dose: 16.0 mg/kg/injection, schedule: Q02DX009 (ip), vehicle: Klucel (hydroxypropylcellulose) (HPC)) was 138 % of control. Also, the survivor count was 9 of 10 and 10 of 10 (dose: 16.0 mg/kg/injection, schedule: Q01DX009 (ip), vehicle: Klucel (hydroxypropylcellulose) (HPC)); 3 of 10 and 10 of 10 (dose: 32.0 mg/kg/injection, schedule: Q01DX009 (ip), vehicle: Klucel (hydroxypropylcellulose) (HPC)); 9 of 10 and 10 of 10 (dose: 32.0 mg/kg/injection, schedule: Q02DX009 (ip), vehicle: Klucel (hydroxypropylcellulose) (HPC)); 0 of 10 and 4 of 10 (dose: 64.0 mg/kg/injection, schedule: Q01DX009 (ip), vehicle: Klucel (hydroxypropylcellulose) (HPC)); 3 of 10 and 9 of 10 (dose: 64.0 mg/kg/injection, schedule: Q02DX009 (ip), vehicle: Klucel (hydroxypropylcellulose) (HPC)).
Consider `C[CH2][Sn]([CH2]C)([CH2]C(=O)OC)[CH2]C(=O)OC`, for which the survivor count runs as follows: (dose: 12.5 mg/kg/injection, schedule: Q01DX009 (ip), vehicle: saline with Tween-80) 8 of 10; (dose: 25.0 mg/kg/injection, schedule: Q01DX009 (ip), vehicle: saline with Tween-80) 0 of 10; (dose: 50.0 mg/kg/injection, schedule: Q01DX009 (ip), vehicle: saline with Tween-80) 0 of 10; (dose: 100.0 mg/kg/injection, schedule: Q01DX009 (ip), vehicle: saline with Tween-80) 0 of 10; under setting [3], 0 of 10.
Take `COC(COC(=O)N1CCN(C=O)CC1)C1=C(N2CC2)C(=O)C(C)=C(N2CC2)C1=O` (configuration not stated): the T/C (dose: 0.38 mg/kg/injection, schedule: Q01DX009 (ip), vehicle: saline) was 125 % of control. The survivor count is, setting by setting: (dose: 6.0 mg/kg/injection, schedule: Q01DX009 (ip), vehicle: saline) 10 of 10; (dose: 12.0 mg/kg/injection, schedule: Q01DX009 (ip), vehicle: saline) 10 of 10.
Turning to `N#CC(Br)(Br)C(N)=O`, the survivor count (dose: 0.63 mg/kg/injection, schedule: Q01DX009 (ip), vehicle: saline) is reported as 10 of 10 and the survivor count (dose: 2.5 mg/kg/injection, schedule: Q01DX009 (ip), vehicle: saline) is 10 of 10.
